Experimental findings from paper PMC4488268 are described below.

Test [1] addresses T1, full-length ZBTB16 fused to the GAL4 DNA-binding domain (human) (UniProt Q05516).
T1 sequence: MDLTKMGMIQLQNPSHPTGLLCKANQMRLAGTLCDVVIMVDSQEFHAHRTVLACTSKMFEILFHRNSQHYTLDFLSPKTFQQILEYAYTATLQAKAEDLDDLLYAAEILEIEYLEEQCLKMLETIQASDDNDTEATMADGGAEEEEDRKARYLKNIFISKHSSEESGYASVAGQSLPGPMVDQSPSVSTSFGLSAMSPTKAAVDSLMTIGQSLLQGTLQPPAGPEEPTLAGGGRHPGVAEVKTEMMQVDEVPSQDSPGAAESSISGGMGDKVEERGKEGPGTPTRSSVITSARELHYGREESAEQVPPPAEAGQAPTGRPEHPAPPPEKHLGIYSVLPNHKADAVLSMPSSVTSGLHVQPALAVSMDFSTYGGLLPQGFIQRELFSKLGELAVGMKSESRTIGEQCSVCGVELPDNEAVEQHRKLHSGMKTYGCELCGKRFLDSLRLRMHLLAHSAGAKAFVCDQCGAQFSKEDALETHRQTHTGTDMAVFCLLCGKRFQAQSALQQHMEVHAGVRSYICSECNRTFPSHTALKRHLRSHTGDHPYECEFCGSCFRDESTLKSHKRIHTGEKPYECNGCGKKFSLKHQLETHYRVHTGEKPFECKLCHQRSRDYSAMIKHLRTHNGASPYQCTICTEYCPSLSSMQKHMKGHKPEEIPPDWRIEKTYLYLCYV
As to the kind of experiment: two-hybrid; … GAL4 system (Clontech), yeast strain AH109; full-length ZBTB16 on the GAL4 DNA-binding domain (pGBKT7) as bait, NLRP7 constructs on the GAL4 activation domain (pGADT7); growth on SDhigh.

The target of test [2] is T2, full-length NLRP7, Flag-tagged (human) (UniProt Q8WX94).
T2 sequence: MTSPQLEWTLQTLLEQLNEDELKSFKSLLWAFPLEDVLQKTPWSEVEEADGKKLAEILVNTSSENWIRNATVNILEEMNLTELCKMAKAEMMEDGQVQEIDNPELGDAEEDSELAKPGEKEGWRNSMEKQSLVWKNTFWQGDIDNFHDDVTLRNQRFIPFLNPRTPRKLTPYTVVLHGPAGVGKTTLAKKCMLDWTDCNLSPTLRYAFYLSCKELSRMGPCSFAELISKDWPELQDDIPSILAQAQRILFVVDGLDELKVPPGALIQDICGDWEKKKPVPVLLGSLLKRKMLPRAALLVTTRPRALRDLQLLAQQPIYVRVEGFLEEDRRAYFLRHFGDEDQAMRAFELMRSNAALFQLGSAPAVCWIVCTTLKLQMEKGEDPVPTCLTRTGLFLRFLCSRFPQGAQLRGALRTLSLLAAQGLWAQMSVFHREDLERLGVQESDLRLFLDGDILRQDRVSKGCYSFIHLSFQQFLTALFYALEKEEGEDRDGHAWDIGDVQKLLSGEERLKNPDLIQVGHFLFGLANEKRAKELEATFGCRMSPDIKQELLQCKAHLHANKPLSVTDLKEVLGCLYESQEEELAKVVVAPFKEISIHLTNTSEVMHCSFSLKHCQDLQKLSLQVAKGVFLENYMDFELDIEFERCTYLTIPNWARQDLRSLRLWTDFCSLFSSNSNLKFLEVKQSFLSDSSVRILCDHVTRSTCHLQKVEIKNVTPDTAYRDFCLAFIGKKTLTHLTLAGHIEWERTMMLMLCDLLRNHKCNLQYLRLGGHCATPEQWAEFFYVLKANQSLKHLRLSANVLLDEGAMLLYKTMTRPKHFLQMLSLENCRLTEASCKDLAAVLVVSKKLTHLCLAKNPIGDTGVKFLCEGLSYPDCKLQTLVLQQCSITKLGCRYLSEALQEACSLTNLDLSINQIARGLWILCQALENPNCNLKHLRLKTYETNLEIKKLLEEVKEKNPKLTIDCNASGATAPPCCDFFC
Description: co-IP; HEK293T cells transiently co-transfected with Flag- and Myc-tagged constructs; immunoprecipitation with an anti-Flag antibody, immunoblot; band density quantified. For orientation: In western blotting, separated proteins are transferred to a membrane and probed.

Test [3] deals with NLRP7 ΔNACHT, Flag-tagged (human). The test is described as above.
Test [4] addresses NLRP7 LRR domain, Flag-tagged (human). Described as above.
Test [5] addresses NLRP7 ΔLRR, Flag-tagged (human). The description is as above.
The target in test [6] is NLRP7 ΔNAD/LRR, Flag-tagged (human). The test is described as above.
In test [7] the target is NLRP7 ΔPYD, Flag-tagged (human). The test is described as above.
For test [8], the target named is NLRP7 ΔPYD/LRR, Flag-tagged (human). The description is as above.
For test [9], the target named is NLRP7 ΔPYD/NACHT, Flag-tagged (human). The test is described as above.

These are yes or no findings as the source states them, for the method shown. For some of these results: A result given as binding can be weak or reduced; the word gives no strength. Tags and fused reporters may be left off the sequences shown. For some of these results: In cells and extracts the contact can be indirect.

Take “NLRP7 ΔPYD fused to the GAL4 activation domain (human) (domain or fragment)”: in test [1], the binding entry is “no binding”.

Turning to “NLRP7 ΔNAD/LRR fused to the GAL4 activation domain (human) (domain or fragment)”, the binding result in [1] is “binds weakly”. Still for that read-out and setting: to “NLRP7 ΔLRR fused to the GAL4 activation domain (human) (domain or fragment)” belongs “binds”; to “NLRP7 ΔPYD/LRR fused to the GAL4 activation domain (human) (domain or fragment)”, “binds weakly”.

On to “NLRP7 NAD domain fused to the GAL4 activation domain (human) (domain or fragment)”, for which the binding entry in test [1] is listed as “binds”.

On to “ZBTB16 deletion construct del2 (RD2-3ZN), Myc-tagged (from UniProt Q05516) (domain or fragment)”, for which, in [2], the binding entry is “no binding”.

B1: ZBTB16 deletion construct del1 (aa 1–164), Myc-tagged (domain or fragment, UniProt Q05516 1-164)
chain: MDLTKMGMIQLQNPSHPTGLLCKANQMRLAGTLCDVVIMVDSQEFHAHRTVLACTSKMFEILFHRNSQHYTLDFLSPKTFQQILEYAYTATLQAKAEDLDDLLYAAEILEIEYLEEQCLKMLETIQASDDNDTEATMADGGAEEEEDRKARYLKNIFISKHSSE
Turning to B1, the binding entry in test [3] is recorded as “binds weakly”.

B2: full-length ZBTB16, Myc-tagged (protein, UniProt Q05516 1-673)
chain: MDLTKMGMIQLQNPSHPTGLLCKANQMRLAGTLCDVVIMVDSQEFHAHRTVLACTSKMFEILFHRNSQHYTLDFLSPKTFQQILEYAYTATLQAKAEDLDDLLYAAEILEIEYLEEQCLKMLETIQASDDNDTEATMADGGAEEEEDRKARYLKNIFISKHSSEESGYASVAGQSLPGPMVDQSPSVSTSFGLSAMSPTKAAVDSLMTIGQSLLQGTLQPPAGPEEPTLAGGGRHPGVAEVKTEMMQVDEVPSQDSPGAAESSISGGMGDKVEERGKEGPGTPTRSSVITSARELHYGREESAEQVPPPAEAGQAPTGRPEHPAPPPEKHLGIYSVLPNHKADAVLSMPSSVTSGLHVQPALAVSMDFSTYGGLLPQGFIQRELFSKLGELAVGMKSESRTIGEQCSVCGVELPDNEAVEQHRKLHSGMKTYGCELCGKRFLDSLRLRMHLLAHSAGAKAFVCDQCGAQFSKEDALETHRQTHTGTDMAVFCLLCGKRFQAQSALQQHMEVHAGVRSYICSECNRTFPSHTALKRHLRSHTGDHPYECEFCGSCFRDESTLKSHKRIHTGEKPYECNGCGKKFSLKHQLETHYRVHTGEKPFECKLCHQRSRDYSAMIKHLRTHNGASPYQCTICTEYCPSLSSMQKHMKGHKPEEIPPDWRIEKTYLYLCYV
For B2, the binding entry in test [4] is listed as “binds weakly”; in test [5], “binds”; in test [3] it was “no binding”; in test [6], “binds weakly”; in test [7] it was “binds”; in test [8], “binds”. Also, in [9], the binding result is “no binding”.

B3: ZBTB16 deletion construct del4 (aa 268–673), Myc-tagged (domain or fragment, UniProt Q05516 268-673)
chain: MGDKVEERGKEGPGTPTRSSVITSARELHYGREESAEQVPPPAEAGQAPTGRPEHPAPPPEKHLGIYSVLPNHKADAVLSMPSSVTSGLHVQPALAVSMDFSTYGGLLPQGFIQRELFSKLGELAVGMKSESRTIGEQCSVCGVELPDNEAVEQHRKLHSGMKTYGCELCGKRFLDSLRLRMHLLAHSAGAKAFVCDQCGAQFSKEDALETHRQTHTGTDMAVFCLLCGKRFQAQSALQQHMEVHAGVRSYICSECNRTFPSHTALKRHLRSHTGDHPYECEFCGSCFRDESTLKSHKRIHTGEKPYECNGCGKKFSLKHQLETHYRVHTGEKPFECKLCHQRSRDYSAMIKHLRTHNGASPYQCTICTEYCPSLSSMQKHMKGHKPEEIPPDWRIEKTYLYLCYV
As for B3, the values for the binding result in [3] and in test [8] were “binds weakly” and “binds”, respectively.
